Source: PubChem BioAssay AID1347426 (Functional Genomics Laboratory (NCATS/FGL), 2020)
About 1,400 (4.5%) of roughly 31,000 sequences were called active.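 The calls were made as follows: active = median seed-adjusted z-score above 1 or below -1; inactive = the rest.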 Some of the results follow.

assay: Novel Modifiers of Survival Motor Neuron (SMN) Protein: Gene Identification via Genome-wide siRNA Screen; conditions: HEK293T SMN2-luciferase reporter, siRNA knockdown, 72 h; actives lie on both sides;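 also: luminescence tracks full-length SMN protein made from the SMN2 reporter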
In short: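 Genome-wide siRNA screen (10418 genes, 3 siRNAs each, 1 pmol per well) by reverse transfection in HEK293T cells stably carrying an SMN2-luciferase reporter; luminescence after 72 hours, normalized to negative-control siRNA, log10-transformed, MAD-scored.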

Sequence | median seed-adjusted z-score
CGAAGUCUACAAACUCGAUTT against CHST11 | inactive: -0.275
CAGUUAUCAUUCUAGUAUUTT against ATP2B1 | inactive: -0.459
GGACGAAGGACGUGCUGUUTT against SHC2 | inactive: -0.207
GUGGUUGUCUAUGACAUUATT against RAB41 | inactive: -0.534
GAUCUCUCCUGAUUUACCATT against GPR37 | inactive: -0.0447
GGAAGUACCUGAGUGUGCATT against MTCH1 | inactive: 0
GGAUCUCCCAGGUAUCAUUTT against DRG1 | inactive: 0.336
GGUUCCUGGUGCAUCGAUATT against SORT1 | inactive: -0.43
CCUGAAGAAAGACAAGAUATT against POLR3G | inactive: -0.485
CGGGUAAACUAUGAGCUGATT against ADCY2 | inactive: 0.173
GGGAUAGCGAGACCACUAATT against HCK | inactive: -0.48
GGUCAGACUGUCAACCUAATT against ARHGAP12 | inactive: 0.525
GCCCGCCCUUCCUAAGUUATT against ZNF787 | inactive: -0.0628
CUGUUGAUUUGAUAGUUUATT against TK2 | inactive: 0
GGGCAACAGUUGAACACCATT against PDK4 | inactive: -0.693
GGUGGUGGAUGUUUCCAAUTT against TLE3 | inactive: -0.451
CGUAGUGAUUGGGAAGUGATT against EIF3D | inactive: 0.104
GCAUCGACCGGGUUUAUGATT against KARS | inactive: -0.152
AGGACAACUCCUACCUGUATT against PRKACG | inactive: 0
GUAUCAUGCCCAUCUGAAATT against ZMAT4 | inactive: -0.0468
CGGCAAUCCUUACGGCUAATT against DSG4 | inactive: -0.0211
GGUCUGCAUCUAAGACUAATT against LST-3TM12 | inactive: -0.109

Part of the list above in another layout.
Sequence	median seed-adjusted z-score
GGACGAAGGACGUGCUGUUTT against SHC2	inactive: -0.207
GUGGUUGUCUAUGACAUUATT against RAB41	inactive: -0.534
GAUCUCUCCUGAUUUACCATT against GPR37	inactive: -0.0447
GGAAGUACCUGAGUGUGCATT against MTCH1	inactive: 0

(listing goes on)

Sequence | median seed-adjusted z-score
GAGCUAUAAUCAGACCUGUTT against ART5 | inactive: -0.354
CGCUCCAAGAAAAAUGAAATT against DYNLRB1 | inactive: -0.58
CAGUUUAGGUUCCUAAGUATT against PDXP | inactive: -0.302
CGAGGCUCAUGGUACGUCUTT against MSRB2 | inactive: 0.373
CGAUUAGGACUGACAAUAATT against IFT57 | active: -1.1
GGAUAGGUGUUCUUAAACATT against PPP4R1 | inactive: -0.911
GGAUCGUAUUACUCCAUAUTT against PIK3R4 | inactive: -0.502
ACGGAACUUUUGUGACAUUTT against PGLYRP3 | inactive: -0.671
GCAUCAAUGUCAAGAACGATT against MYLC2PL | inactive: -0.7
GAGUCUAAAAGAAGUUGUATT against GOT1L1 | inactive: -0.277
GGAGAACUCGUUCAAAUGUTT against ZXDA | inactive: -0.0748
GAAGCUAAAUUAAGAGCUATT against SSB | inactive: 0
CCAAGGUUUUGGAUAGCAATT against RHBDL2 | inactive: 0.0701
CUCAAGGAGUUGCUACUCATT against SPDEF | inactive: -0.607
CAUUGGACAGUAUUACAAATT against UBE2U | inactive: -0.0545
GGACCAGGCCUAUAGCUAUTT against WARS | inactive: -0.724
GCCCUUGACUUCCUGCAUATT against MKNK1 | inactive: 0.221
AGAACGACAGGGACAUUUATT against MAPK15 | inactive: 0.0724
CCAAGAAAGUGAAAGACCATT against F12 | inactive: 0.345
GAAUUGGGCUUGUCUACGUTT against RHBDL3 | inactive: 0.56
CAACAACAGGUAUGAGAUATT against ACCN2 | inactive: -0.597
GAACCGAGACAACUACAUUTT against TLE2 | inactive: 0.00566

Sequence | median seed-adjusted z-score
CUAUGAAGCCCGUCCAGAATT against HSPA5 | inactive: 0.19
GACCUCUACUAAACGCAAATT against CCNI | inactive: -0.174
GGAUUUUGAUGCUUUCGUATT against IL18RAP | inactive: -0.681
GAAGUGUACGCAGCAGGAATT against KCNAB3 | inactive: 0.0697
CAUCCGGAUUGUUACGAGATT against EMR4 | inactive: -0.475
GGGAGAGCCGCACAACAUATT against SOX15 | inactive: -0.376
GACUACUUAUGAAUUUGCATT against HSD17B13 | inactive: -0.329
CCAAUGUGCUCAGACGUAATT against KIF4A | inactive: -0.156
CAGUGGGAACGACAACUUUTT against HNRPA1P4 | inactive: -0.906
CCGGAGUUACGAUGACUUUTT against SNX26 | inactive: -0.788
GAACUCGCAUGGUUAUGAATT against PLCB4 | inactive: -0.521
GCUUCAUCGUGAUCGCUGATT against RPIA | inactive: 0.0803
GGUGGACUAAAAACCGAAATT against ART3 | inactive: -0.434
GGCCAUGGUUUGUUGGAGATT against GSTM4 | inactive: -0.204
CCACAGUGCCCAAAACUGATT against ERG | inactive: 0.629
CCAGCAGCGCGGUCUAUUATT against SOX18 | inactive: 0.0663
GCUUUACCAGGUUAUGGAATT against SIK1 | inactive: 0.887
GCAUUGGAGGUGAUCCUUUTT against SUCLG1 | inactive: -0.63
ACUGAUCUAUGAAUCUGUUTT against GSTO2 | inactive: 0.142
CCACAUCUCAAGUCCACUUTT against PPP1R1A | inactive: -0.529
GGAUCUACAUCCAUCGCUATT against ADCY8 | inactive: 0.103
GGCAUGACAUUGACUGUCATT against LOXL3 | inactive: 0.517

Sequence | median seed-adjusted z-score
CAGGAGAAGUUUGAACUAATT against DCTN1 | inactive: 0.25
AAACUACAGCGAUAUCUGATT against MICB | inactive: 0.162
CUCUUGAUAUCCUUACUAATT against DMRTA1 | inactive: -0.162
UCAACCUCAUGGACUUUAATT against SLC5A5 | active: 1.01
GGUGAACGAUUUCUCCAGATT against NEIL2 | inactive: -0.256
GGAUUGACUCUAUCACUGATT against DLGAP1 | inactive: 0.357
GGAUCCUAUUGAGAGGCUATT against HS2ST1 | inactive: 0.421
CGACUACCCAUACUCUCCATT against CDC34 | inactive: 0
CACUUUCGAUUCUUGGAAATT against PPP1R3C | inactive: 0
AGAACGUGCCCUUAACUAATT against KCNE1 | inactive: -0.347
AUGUGACCCUGGUGGAUAATT against SGCA | inactive: 0.144
AGAUGAAGAUCGGACUUCUTT against WDFY1 | inactive: 0.979
GGAUCCAUAUGAAGCAUGUTT against UGDH | inactive: 0.674
GCUUUGAAUGACUCAGUGATT against DNAJC12 | inactive: 0.248
CCACGCUCAUCAUCUCCAATT against SLC4A2 | inactive: -0.539
GUUGCUCUCCGAAAAUUUATT against ACVR1 | inactive: -0.217
UGAUGUUCCUGUACAACUATT against SLC37A2 | inactive: 0.134
GAAAAAGUGGGAUUUAGAATT against FCGR1A | inactive: 0.869
CAAUCUUAGACCCAACAAATT against RAB23 | inactive: 0.45
AGCCCUAUCUGACUUCGCATT against REPIN1 | inactive: -0.0614
GGGAUAGCAGUGGAAAUAATT against NUDT9 | inactive: 0.277
GCAUCAUGUCUUACGCGUUTT against SNX9 | inactive: 0.684

Sequence | median seed-adjusted z-score
GCUAUGUCCUAAUAGAACATT against ZNF572 | inactive: 0.237
CAACUUGUUUGACGACGAATT against KLK1 | inactive: -0.216
CUGCAACCGUGCACACGAATT against GJD3 | inactive: -0.251
GGCACGUUCUGAUCCAGAUTT against ACADM | inactive: 0.127
CAACUCGCUUAAUCAAGUATT against GBA3 | inactive: 0.246
CAGAUAUAAAAGCAUGUAATT against CYP39A1 | inactive: 0.196
GGGUAUCAAUGUGACCGAUTT against MYH9 | inactive: -0.517
CAAUUUUCCUGCAAGAAUATT against CD38 | inactive: 0.192
GAUCAGUAAUAUACCACAATT against MTFMT | inactive: -0.0119
GCCUCUAUACGUCCUUCUUTT against SLC26A1 | inactive: 0.377
CGCGGAAACUUGUCCCUAUTT against SP2 | inactive: -0.617
GCAUCAUCUCAGCACCAGATT against SLC5A12 | inactive: 0.279
CGGCCUUGAUAAACUGAAATT against SNAPC3 | active: -1.72
GGGCCGUGCUGAUUGAGAATT against GPX2 | inactive: -0.21
GCACUUACAUUGAAGGGUUTT against POLH | inactive: -0.446
CAGUGGAUAUAUCCAGUCATT against RAB20 | inactive: -0.334
CCAUUGUCACUGUAUUACUTT against CNIH4 | inactive: -0.0718
GGAUGCUAACAGGCGAUAATT against ATP9B | inactive: 0
CUACUUGAAACUUUAUUUATT against CHAC1 | inactive: 0.517

4 entries picked at random from the list so far, as already listed:
Sequence | median seed-adjusted z-score
GAUCAGUAAUAUACCACAATT against MTFMT | inactive: -0.0119
GGGUAUCAAUGUGACCGAUTT against MYH9 | inactive: -0.517
CUGCAACCGUGCACACGAATT against GJD3 | inactive: -0.251
GGCACGUUCUGAUCCAGAUTT against ACADM | inactive: 0.127
